In article PMC5415356:
Changes are numbered by the printed parent chain. No constants are given. Whether binding was seen depends on the method and setting. Binding seen in cells or lysates may run through a third protein. Some binding calls cover weakened binding; strength is not graded here. Sequences can lack the tags named with a protein.

Amino acid sequences for entries named in this document (tags omitted).
UniProt P46937: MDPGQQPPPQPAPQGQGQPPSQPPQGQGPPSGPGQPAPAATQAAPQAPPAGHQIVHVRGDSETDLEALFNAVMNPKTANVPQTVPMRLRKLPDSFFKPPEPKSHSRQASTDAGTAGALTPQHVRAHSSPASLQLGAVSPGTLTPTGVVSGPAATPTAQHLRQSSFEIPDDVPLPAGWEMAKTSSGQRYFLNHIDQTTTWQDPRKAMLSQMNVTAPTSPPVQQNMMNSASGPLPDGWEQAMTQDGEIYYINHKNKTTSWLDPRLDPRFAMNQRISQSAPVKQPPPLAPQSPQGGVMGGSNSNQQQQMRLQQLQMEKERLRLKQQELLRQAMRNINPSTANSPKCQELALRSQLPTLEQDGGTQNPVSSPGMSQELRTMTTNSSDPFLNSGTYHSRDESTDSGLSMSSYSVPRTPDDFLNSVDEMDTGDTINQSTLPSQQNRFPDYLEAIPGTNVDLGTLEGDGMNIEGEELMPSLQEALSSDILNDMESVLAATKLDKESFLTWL

What was measured:
[1] = target: T1, HA-Amot-p130^S176E (mouse (by the paper's numbering: Ser176 in mouse, Ser175 in human)) (UniProt Q8VHG2); assay: co-IP; HEK293-shAmot cells co-transfected with YAP and an Amot allele, fractionated into cytoplasmic, nuclear and plasma membrane fractions; Amot IP of each fraction, anti-YAP immunoblot
T1 sequence: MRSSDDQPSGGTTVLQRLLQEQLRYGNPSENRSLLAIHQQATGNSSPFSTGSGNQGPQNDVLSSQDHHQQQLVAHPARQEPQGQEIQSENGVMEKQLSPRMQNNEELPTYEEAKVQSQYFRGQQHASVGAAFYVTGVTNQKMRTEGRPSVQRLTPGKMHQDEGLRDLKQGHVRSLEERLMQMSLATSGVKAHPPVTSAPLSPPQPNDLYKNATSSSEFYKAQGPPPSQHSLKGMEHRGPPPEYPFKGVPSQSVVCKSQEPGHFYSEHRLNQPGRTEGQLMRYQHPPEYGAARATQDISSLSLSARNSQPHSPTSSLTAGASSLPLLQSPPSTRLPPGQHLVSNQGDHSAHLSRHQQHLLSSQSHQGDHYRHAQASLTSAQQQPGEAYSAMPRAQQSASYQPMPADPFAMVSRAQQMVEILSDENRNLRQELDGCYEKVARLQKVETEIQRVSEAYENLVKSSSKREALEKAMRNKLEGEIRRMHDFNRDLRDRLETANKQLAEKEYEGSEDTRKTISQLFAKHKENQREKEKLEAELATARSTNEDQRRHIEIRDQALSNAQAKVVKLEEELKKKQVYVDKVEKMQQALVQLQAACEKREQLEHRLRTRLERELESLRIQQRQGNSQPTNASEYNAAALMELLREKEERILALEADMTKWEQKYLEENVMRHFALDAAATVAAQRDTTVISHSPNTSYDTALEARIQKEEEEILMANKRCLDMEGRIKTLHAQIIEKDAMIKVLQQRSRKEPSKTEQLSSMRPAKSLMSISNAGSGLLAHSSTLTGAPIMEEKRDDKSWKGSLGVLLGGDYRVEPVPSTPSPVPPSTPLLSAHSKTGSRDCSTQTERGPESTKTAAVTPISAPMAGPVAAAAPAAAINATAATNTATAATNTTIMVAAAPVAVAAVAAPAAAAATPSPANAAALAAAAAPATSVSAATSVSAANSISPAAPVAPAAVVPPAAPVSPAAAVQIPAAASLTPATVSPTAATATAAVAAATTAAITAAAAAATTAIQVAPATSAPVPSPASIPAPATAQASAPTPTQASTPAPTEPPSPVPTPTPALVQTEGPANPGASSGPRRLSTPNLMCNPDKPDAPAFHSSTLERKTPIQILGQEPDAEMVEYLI

[2] = target: T2, HA-Amot-p130 (mouse (by the paper's numbering: Ser176 in mouse, Ser175 in human)) (UniProt Q8VHG2); assay: as above
T2 sequence: T1 sequence with E176S

[3] = target: T2, HA-Amot-p130 (mouse (by the paper's numbering: Ser176 in mouse, Ser175 in human)); assay: co-IP; HEK293-shAmot cells co-transfected with an Amot-p130 allele (WT, S176A, S176E or PY motif mutants) and tagged partners; total RIPA lysate, IP with tag or protein antibodies overnight, immunoblot

binding [1]: binds | binding [2]: binds | binding [3]: binds
Substance: V5-tagged YAP (from UniProt P46937 1-504)
